Data from patent US20240218030A1.
Results are given in words; binding and its absence hold for the method and conditions named. Some entries that bind do so weakly or less than the wild type.

Biological target: human transferrin receptor-Fc tag standard (human) (UniProt P02786)
Assay: ELISA on plate-coated human TfR-Fc with anti-His detection

B1: huHF_Mutant2-dual (designed binder)
chain: MTTASTSQVRQNYHAASEAAINAQINLELYASYVYLSMSYYFDRDDVALKNFAKYFLHQSHEEREHAEKLMKLQNQRGGRIALADIQKPDCDDGGSYGSLYAFDIWESGLNAMECALHLEKNVNQSLLALHALATAKNDPHLCDFIETHYLNEQVKAIKELGDHVTNLRKMGAPESGLAEYLFDKHTLGDSDNESMPSFITLASLSTWEGYFDF
B1 was tested, and the binding was “binds”.
